The results in this text go back to article PMC9178026.

Sequences of proteins named here, by UniProt entry; tags and fusion partners are left off. A change or cut given only in a name is not applied to a line headed by its entry.
UniProt Q64010: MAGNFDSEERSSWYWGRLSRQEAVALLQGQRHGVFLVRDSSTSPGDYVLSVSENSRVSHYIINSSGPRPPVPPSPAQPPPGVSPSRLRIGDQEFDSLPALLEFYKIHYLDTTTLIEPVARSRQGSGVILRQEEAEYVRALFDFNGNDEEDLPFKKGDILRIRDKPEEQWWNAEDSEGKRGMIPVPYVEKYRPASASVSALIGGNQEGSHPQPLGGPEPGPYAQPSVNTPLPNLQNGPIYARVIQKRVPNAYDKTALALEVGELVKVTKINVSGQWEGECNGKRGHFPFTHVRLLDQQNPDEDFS

Results are given in words; binding and its absence hold for the method and conditions named. In cells and extracts the contact can be indirect. Some entries that bind do so weakly or less than the wild type.

Assay [1] addresses T1, RAC1-GEF FARP1 (mouse (endogenous in E18.5 limb muscle and primary MuSC-derived myotubes)) (UniProt F8VPU2).
T1 sequence: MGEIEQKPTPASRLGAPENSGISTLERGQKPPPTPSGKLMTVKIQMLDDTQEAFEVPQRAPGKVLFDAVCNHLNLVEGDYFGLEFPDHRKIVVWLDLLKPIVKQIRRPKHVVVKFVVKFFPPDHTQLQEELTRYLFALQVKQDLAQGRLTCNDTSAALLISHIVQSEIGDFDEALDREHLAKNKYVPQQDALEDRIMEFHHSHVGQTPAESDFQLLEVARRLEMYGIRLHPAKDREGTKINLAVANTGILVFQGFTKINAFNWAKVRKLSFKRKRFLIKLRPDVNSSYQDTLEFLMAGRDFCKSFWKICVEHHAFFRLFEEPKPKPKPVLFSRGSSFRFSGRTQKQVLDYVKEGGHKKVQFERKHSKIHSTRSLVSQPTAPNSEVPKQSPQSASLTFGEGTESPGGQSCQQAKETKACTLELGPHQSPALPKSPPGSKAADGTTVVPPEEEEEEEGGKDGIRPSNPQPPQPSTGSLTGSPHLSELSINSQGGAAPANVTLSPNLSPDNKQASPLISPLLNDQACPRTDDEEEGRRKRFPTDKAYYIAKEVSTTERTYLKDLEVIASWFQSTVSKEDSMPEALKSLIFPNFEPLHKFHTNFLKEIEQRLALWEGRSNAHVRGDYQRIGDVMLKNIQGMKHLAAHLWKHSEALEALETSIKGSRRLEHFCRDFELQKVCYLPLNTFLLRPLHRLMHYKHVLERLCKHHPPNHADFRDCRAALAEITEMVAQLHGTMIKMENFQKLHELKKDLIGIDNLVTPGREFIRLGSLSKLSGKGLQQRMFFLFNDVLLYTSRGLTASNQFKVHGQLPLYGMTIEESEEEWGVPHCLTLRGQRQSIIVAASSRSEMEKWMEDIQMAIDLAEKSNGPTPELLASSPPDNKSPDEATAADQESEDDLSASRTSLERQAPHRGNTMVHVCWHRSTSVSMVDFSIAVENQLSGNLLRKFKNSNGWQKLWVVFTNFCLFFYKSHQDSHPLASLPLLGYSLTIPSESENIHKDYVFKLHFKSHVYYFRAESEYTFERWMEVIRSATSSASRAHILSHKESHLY
Description: co-IP; immunoprecipitation with a FARP1 antibody from E18.5 limb muscle protein extract; co-precipitated proteins identified by western blot. (In general: A western blot detects proteins with antibodies after separation by electrophoresis.)

Assay [2] deals with Adapter protein CRK (mouse (endogenous in E18.5 limb muscle and primary MuSC-derived myotubes)) (UniProt Q64010). Description: proximity ligation; DuoLink in situ PLA with anti-CRK and anti-FARP1 antibodies in fixed myotubes differentiated from control and miR-1/206/133 tKO primary MuSCs.

Take “Adapter protein CRK (from UniProt Q64010-1 1-304)”: the binding entry in assay [1] is “binds”.

B1: RAC1-GEF FARP1 (protein, UniProt F8VPU2 1-1048)
chain: MGEIEQKPTPASRLGAPENSGISTLERGQKPPPTPSGKLMTVKIQMLDDTQEAFEVPQRAPGKVLFDAVCNHLNLVEGDYFGLEFPDHRKIVVWLDLLKPIVKQIRRPKHVVVKFVVKFFPPDHTQLQEELTRYLFALQVKQDLAQGRLTCNDTSAALLISHIVQSEIGDFDEALDREHLAKNKYVPQQDALEDRIMEFHHSHVGQTPAESDFQLLEVARRLEMYGIRLHPAKDREGTKINLAVANTGILVFQGFTKINAFNWAKVRKLSFKRKRFLIKLRPDVNSSYQDTLEFLMAGRDFCKSFWKICVEHHAFFRLFEEPKPKPKPVLFSRGSSFRFSGRTQKQVLDYVKEGGHKKVQFERKHSKIHSTRSLVSQPTAPNSEVPKQSPQSASLTFGEGTESPGGQSCQQAKETKACTLELGPHQSPALPKSPPGSKAADGTTVVPPEEEEEEEGGKDGIRPSNPQPPQPSTGSLTGSPHLSELSINSQGGAAPANVTLSPNLSPDNKQASPLISPLLNDQACPRTDDEEEGRRKRFPTDKAYYIAKEVSTTERTYLKDLEVIASWFQSTVSKEDSMPEALKSLIFPNFEPLHKFHTNFLKEIEQRLALWEGRSNAHVRGDYQRIGDVMLKNIQGMKHLAAHLWKHSEALEALETSIKGSRRLEHFCRDFELQKVCYLPLNTFLLRPLHRLMHYKHVLERLCKHHPPNHADFRDCRAALAEITEMVAQLHGTMIKMENFQKLHELKKDLIGIDNLVTPGREFIRLGSLSKLSGKGLQQRMFFLFNDVLLYTSRGLTASNQFKVHGQLPLYGMTIEESEEEWGVPHCLTLRGQRQSIIVAASSRSEMEKWMEDIQMAIDLAEKSNGPTPELLASSPPDNKSPDEATAADQESEDDLSASRTSLERQAPHRGNTMVHVCWHRSTSVSMVDFSIAVENQLSGNLLRKFKNSNGWQKLWVVFTNFCLFFYKSHQDSHPLASLPLLGYSLTIPSESENIHKDYVFKLHFKSHVYYFRAESEYTFERWMEVIRSATSSASRAHILSHKESHLY
As for B1, in assay [2], the binding entry is reported as “binds”.
